Results are given in words; binding and its absence hold for the method and conditions named. Some entries that bind do so weakly or less than the wild type.
Tests used:
Test in all cases: two-hybrid; FBX fused to Gal4-DB, ASK fused to Gal4-AD; yeast mating; selection on SD without Leu, Trp, His, Ade (high strength) or without Leu, Trp, His (low strength); every combination examined twice
[1] = target: T1, F-box (FBX) protein At4g29370 (Arabidopsis thaliana) (UniProt Q9M0E6)
T1 sequence: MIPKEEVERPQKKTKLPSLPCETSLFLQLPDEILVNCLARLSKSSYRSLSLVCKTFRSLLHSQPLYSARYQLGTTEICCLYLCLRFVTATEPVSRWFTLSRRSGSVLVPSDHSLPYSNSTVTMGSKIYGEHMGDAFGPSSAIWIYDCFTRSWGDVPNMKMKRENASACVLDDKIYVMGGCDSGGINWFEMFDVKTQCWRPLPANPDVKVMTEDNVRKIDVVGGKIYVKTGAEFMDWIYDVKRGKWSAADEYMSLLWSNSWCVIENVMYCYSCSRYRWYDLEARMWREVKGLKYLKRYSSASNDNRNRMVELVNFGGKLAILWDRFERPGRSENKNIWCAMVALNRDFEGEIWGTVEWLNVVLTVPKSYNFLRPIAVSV

[2] = target: T2, F-box (FBX) protein At4g02310 (Arabidopsis thaliana) (UniProt O81414)
T2 sequence: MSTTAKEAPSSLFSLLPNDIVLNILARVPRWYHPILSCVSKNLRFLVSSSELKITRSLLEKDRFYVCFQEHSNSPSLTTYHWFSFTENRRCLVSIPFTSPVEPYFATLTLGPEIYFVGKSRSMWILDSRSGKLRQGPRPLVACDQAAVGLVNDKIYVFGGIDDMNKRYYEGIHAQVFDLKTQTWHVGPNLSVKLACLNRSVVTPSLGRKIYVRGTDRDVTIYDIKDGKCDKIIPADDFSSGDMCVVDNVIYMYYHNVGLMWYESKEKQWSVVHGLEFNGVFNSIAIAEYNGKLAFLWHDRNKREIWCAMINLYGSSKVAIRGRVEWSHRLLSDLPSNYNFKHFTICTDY

[3] = target: T3, F-box (FBX) protein At5g21040 (Arabidopsis thaliana) (UniProt Q94AD8)
T3 sequence: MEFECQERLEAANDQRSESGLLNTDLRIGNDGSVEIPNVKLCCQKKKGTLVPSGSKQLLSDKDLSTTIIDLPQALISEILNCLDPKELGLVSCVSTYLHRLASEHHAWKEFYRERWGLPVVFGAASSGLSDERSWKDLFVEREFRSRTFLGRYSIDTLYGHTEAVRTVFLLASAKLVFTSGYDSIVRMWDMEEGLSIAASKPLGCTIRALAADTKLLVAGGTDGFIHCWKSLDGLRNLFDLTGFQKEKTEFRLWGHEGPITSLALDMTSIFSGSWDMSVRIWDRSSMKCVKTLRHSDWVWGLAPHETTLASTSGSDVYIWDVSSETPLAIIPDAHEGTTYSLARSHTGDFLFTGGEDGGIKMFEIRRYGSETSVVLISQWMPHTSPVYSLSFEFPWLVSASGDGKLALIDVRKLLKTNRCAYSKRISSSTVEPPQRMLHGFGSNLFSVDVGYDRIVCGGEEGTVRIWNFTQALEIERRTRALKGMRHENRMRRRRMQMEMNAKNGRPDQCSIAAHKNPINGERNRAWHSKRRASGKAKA

[4] = target: T4, F-box (FBX) protein At3g04660 (Arabidopsis thaliana) (UniProt Q9SR08)
T4 sequence: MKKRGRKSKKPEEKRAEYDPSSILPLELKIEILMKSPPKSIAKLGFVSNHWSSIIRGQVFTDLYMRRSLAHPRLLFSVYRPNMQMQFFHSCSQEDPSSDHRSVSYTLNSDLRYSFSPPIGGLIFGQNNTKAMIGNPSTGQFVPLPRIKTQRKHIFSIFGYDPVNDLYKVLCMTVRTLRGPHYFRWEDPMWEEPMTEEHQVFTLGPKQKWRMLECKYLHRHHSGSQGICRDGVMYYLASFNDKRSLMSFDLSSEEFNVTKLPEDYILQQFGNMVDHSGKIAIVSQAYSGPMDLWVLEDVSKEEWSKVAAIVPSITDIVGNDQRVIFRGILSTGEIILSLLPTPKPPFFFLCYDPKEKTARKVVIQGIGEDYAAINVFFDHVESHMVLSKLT

[5] = target: T5, F-box (FBX) protein At2g22030 (Arabidopsis thaliana) (UniProt Q9SI02)
T5 sequence: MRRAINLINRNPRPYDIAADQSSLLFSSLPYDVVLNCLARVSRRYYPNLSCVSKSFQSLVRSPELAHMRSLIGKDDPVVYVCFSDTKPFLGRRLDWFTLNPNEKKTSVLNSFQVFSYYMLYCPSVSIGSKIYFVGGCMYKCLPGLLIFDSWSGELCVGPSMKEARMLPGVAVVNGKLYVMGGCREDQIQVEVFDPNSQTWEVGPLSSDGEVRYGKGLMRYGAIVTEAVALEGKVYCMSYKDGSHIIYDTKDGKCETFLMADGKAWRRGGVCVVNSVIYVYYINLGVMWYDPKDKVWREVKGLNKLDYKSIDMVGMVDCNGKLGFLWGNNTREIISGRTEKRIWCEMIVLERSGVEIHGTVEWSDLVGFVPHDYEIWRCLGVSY

[6] = target: T6, F-box (FBX) protein At5g53840 (Arabidopsis thaliana) (UniProt Q9FGQ3)
T6 sequence: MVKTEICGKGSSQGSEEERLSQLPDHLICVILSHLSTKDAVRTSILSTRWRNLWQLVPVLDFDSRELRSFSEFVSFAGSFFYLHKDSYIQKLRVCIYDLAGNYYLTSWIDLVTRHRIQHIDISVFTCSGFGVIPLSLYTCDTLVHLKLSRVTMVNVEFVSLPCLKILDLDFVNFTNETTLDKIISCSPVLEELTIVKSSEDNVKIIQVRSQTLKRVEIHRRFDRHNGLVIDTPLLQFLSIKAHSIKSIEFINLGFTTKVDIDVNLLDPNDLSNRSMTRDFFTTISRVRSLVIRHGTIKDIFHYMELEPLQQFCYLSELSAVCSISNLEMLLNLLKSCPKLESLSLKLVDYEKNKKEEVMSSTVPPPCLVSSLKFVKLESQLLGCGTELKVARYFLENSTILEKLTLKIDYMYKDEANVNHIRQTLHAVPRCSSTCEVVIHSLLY

[7] = target: T7, F-box (FBX) protein At4g10400 (Arabidopsis thaliana) (UniProt Q9SV82)
T7 sequence: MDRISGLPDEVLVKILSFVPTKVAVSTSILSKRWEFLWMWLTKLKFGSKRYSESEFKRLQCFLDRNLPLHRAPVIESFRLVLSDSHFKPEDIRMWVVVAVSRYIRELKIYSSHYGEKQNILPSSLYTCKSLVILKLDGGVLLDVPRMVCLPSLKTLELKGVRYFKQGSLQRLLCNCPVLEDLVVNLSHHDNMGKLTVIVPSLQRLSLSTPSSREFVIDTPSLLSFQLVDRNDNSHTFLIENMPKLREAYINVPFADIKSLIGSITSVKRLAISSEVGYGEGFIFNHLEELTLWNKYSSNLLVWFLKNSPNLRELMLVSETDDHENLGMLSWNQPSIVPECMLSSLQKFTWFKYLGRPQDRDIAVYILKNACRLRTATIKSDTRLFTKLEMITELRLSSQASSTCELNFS

[8] = target: T8, F-box (FBX) protein At4g27050 (Arabidopsis thaliana) (UniProt Q9SZ44)
T8 sequence: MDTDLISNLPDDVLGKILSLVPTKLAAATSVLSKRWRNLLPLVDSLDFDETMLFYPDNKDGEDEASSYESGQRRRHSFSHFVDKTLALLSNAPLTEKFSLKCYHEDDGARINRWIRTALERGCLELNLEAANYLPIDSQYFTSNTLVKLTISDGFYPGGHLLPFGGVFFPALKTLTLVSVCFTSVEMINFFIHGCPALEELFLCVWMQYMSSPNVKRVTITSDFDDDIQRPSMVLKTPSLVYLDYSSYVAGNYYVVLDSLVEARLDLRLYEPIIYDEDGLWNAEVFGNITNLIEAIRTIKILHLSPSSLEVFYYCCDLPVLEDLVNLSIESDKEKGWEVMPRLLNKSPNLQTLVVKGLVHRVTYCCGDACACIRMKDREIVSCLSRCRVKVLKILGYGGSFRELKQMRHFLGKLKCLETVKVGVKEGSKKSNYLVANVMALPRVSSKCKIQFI

[9] = target: T9, F-box (FBX) protein At2g20380 (Arabidopsis thaliana) (UniProt Q9SK64)
T9 sequence: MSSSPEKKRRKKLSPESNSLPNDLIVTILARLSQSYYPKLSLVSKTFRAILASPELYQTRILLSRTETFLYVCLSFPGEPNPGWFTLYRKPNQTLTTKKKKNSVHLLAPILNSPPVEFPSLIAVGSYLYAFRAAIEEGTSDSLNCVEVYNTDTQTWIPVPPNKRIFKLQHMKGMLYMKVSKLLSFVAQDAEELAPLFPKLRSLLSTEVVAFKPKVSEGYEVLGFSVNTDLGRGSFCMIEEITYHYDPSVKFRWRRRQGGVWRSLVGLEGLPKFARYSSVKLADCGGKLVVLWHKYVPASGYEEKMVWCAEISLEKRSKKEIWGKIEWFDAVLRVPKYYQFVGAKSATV

[10] = target: T10, F-box (FBX) protein At3g22940 (Arabidopsis thaliana) (UniProt Q9LIK3)
T10 sequence: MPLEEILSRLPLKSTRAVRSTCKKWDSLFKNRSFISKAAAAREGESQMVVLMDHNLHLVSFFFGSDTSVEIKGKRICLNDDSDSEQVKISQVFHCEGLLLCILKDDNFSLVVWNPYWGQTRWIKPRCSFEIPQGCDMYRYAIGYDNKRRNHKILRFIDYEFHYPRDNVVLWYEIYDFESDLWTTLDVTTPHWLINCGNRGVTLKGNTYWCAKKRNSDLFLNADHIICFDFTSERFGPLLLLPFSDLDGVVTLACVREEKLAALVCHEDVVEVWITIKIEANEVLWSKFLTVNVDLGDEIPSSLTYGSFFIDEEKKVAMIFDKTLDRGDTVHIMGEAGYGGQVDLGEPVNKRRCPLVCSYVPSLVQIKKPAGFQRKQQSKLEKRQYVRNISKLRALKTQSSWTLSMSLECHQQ

Measured: binding

B1: Arabidopsis SKP1-LIKE 13 (ASK13) (protein, UniProt Q9M1X5 1-154)
chain: MSKMVMLLSSDGESFQVEEAVAVQSQTIAHMIEDDCVANGVPIANVTGVILSKVIEYCKKHVVSDSPTEESKDELKKWDAEFMKALEQSSTLFDVMLAANYLNIKDLLDLGCQTVADMITGKKPDEIRALLGIENDFTPEEEEEIRKENQWAFE
binds: [1] | [2] | [3] | [4] | [5]

B2: Arabidopsis SKP1-LIKE 3 (ASK3) (protein, UniProt Q9SL93 1-163)
chain: MAETKKMIILKSSDGESFEVEEAVAVESQTIKHMIEDDCVDNGIPLPNVTGAILAKVIEYCKKHVEAAAEAGGDKDFYGSTENHELKTWDNDFVKVDHPTLFDLLRAANYLNISGLLDLTCKAVADQMRGKTPAQMREHFNIKNDYTPEEEAEVRNENRWAFE
binds: [6] | [7] | [8] | [9]

B3: Arabidopsis SKP1-LIKE 19 (ASK19) (protein, UniProt O81058 1-200)
chain: MSSKKIVLTSSDGESFKVEEVVARKLQIVGHIIEDDCATNKIPIPNVTGEILAKVIEYCKKHVEDDDDVVETHESSTKGDKTVEEAKKKPDDVAVPESTEGDDEAEDKKEKLNEWDAKFMKDFDIKTIFDIILAANYLNVQGLFDLCSKTIADYIKDMTPEEVRELFNIENDFTPEEEEAIRNENAWTFEQDGKQQVPKP
binds: [10]

— paper PMC3499479
